Settings: after iv diazepam, cumulative 200 μg/kg, all time points

O=C1CN=C(c2ccccc2)c2cc(Cl)ccc2N1 [desmethyldiazepam]
Plasma level of the metabolite relative to parent drug: much lower than levels of the parent drug
